Measurements reported in paper PMC13492119.
No constants are given. Whether binding was seen depends on the method and setting. In cells and extracts the contact can be indirect. These calls come from enrichment with a bait or labelling near it, and not all partners need be listed. Tags and fused reporters may be left off the sequences shown.

Protein sequences, listed by entry. Tags and fused reporters are not part of them.
UniProt P04147: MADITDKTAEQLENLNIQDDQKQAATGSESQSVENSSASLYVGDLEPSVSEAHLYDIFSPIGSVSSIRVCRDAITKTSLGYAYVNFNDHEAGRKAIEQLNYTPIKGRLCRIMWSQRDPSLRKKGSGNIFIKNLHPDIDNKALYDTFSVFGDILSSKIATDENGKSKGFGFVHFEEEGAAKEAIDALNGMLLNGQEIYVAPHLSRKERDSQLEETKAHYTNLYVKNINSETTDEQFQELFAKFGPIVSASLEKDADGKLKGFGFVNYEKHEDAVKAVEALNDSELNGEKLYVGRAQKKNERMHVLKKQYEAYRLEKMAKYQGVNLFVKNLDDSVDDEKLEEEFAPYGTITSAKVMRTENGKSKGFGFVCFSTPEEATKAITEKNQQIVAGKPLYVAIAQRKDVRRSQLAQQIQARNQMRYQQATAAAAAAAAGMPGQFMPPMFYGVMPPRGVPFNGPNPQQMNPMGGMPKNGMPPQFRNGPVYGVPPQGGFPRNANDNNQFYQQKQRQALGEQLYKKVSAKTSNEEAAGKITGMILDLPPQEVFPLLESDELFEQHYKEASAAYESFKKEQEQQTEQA

Tests used:
[1] = target: T1, Puf3-Tap-tag (S. cerevisiae) (UniProt Q07807); assay: affinity purification with mass spectrometry; Puf3-TAP tagged in the wild type cells (condition 1); wild type and not4Δ cells mixed and broken together; IgG coupled magnetic beads, 2 h at 4°C, 20 mM Hepes pH 7.4, 100 mM KOAc, 0.5% Triton X-100 washes; ribonuclease inhibitor in the lysis buffer; compared with untagged control and with condition 2
T1 sequence: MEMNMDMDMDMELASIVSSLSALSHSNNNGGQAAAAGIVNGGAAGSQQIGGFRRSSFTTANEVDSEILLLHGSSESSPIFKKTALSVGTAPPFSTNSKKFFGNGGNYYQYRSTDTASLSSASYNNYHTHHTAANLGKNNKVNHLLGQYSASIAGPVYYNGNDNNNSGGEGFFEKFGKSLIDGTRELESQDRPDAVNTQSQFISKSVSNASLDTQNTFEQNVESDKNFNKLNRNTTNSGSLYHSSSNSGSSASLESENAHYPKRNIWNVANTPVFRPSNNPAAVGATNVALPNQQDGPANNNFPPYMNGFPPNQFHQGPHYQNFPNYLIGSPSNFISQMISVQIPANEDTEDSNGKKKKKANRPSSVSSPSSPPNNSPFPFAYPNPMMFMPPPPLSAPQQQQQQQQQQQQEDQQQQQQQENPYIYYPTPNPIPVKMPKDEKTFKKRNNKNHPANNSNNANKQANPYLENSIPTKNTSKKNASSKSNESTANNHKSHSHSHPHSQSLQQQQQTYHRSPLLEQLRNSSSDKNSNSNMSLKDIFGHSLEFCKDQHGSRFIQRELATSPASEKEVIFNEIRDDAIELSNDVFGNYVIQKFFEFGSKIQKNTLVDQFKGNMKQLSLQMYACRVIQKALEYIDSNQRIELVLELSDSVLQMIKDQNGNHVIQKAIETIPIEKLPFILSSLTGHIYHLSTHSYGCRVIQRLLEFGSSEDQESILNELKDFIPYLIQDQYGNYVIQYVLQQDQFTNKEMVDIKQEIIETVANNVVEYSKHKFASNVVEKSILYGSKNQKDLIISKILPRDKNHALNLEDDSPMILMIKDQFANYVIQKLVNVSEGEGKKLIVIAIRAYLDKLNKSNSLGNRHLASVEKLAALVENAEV

[2] = target: T1, Puf3-Tap-tag (S. cerevisiae); assay: affinity purification with mass spectrometry; Puf3-TAP tagged in the not4Δ cells (condition 2); wild type and not4Δ cells mixed and broken together; IgG coupled magnetic beads, 2 h at 4°C, 20 mM Hepes pH 7.4, 100 mM KOAc, 0.5% Triton X-100 washes; ribonuclease inhibitor in the lysis buffer; compared with untagged control and with condition 1

For “poly(A) binding protein Pab1 (from UniProt P04147 1-577)”, the binding [1] was “binds” and the binding [2] was “binds”.

B1: Hrr25 kinase (enzyme, UniProt P29295 1-494)
chain: MDLRVGRKFRIGRKIGSGSFGDIYHGTNLISGEEVAIKLESIRSRHPQLDYESRVYRYLSGGVGIPFIRWFGREGEYNAMVIDLLGPSLEDLFNYCHRRFSFKTVIMLALQMFCRIQYIHGRSFIHRDIKPDNFLMGVGRRGSTVHVIDFGLSKKYRDFNTHRHIPYRENKSLTGTARYASVNTHLGIEQSRRDDLESLGYVLIYFCKGSLPWQGLKATTKKQKYDRIMEKKLNVSVETLCSGLPLEFQEYMAYCKNLKFDEKPDYLFLARLFKDLSIKLEYHNDHLFDWTMLRYTKAMVEKQRDLLIEKGDLNANSNAASASNSTDNKSETFNKIKLLAMKKFPTHFHYYKNEDKHNPSPEEIKQQTILNNNAASSLPEELLNALDKGMENLRQQQPQQQVQSSQPQPQPQQLQQQPNGQRPNYYPEPLLQQQQRDSQEQQQQVPMATTRATQYPPQINSNNFNTNQASVPPQMRSNPQQPPQDKPAGQSIWL
For B1, the binding [1] was “binds” and the binding [2] was “binds”.
